PubChem BioAssay AID504784 – Drosophila RNAi Screening Center | 2011
Assay: 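Genome-wide knock-down for genes giving too much or too little stored lipid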 (primary screen). System: Drosophila Kc167 embryonic cells. Reagent: long dsRNA against Drosophila genes, about 250 ng dsRNA per well. Timing: 4 days. Treatment: cells fed 400 µM oleic acid bound to BSA. Detection: 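Microscope images give a droplet-to-nucleus area ratio, taken as log and converted to a screen-wide B-score; higher values mean greater lipid storage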. Reading the numbers: droplet/nuclear area B-score: higher = more stored lipid (overstorage).
The screen tested about 17,000 reagents; this is an unselected part of those with a known target gene and a result. 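Each column is one replicate's B-score; the combined score over replicates was not deposited, so single values may mislead.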 The numbers tell different reagents against one gene apart. A plus sign joins genes that one reagent is predicted to hit.

gene knocked down,reagent,"droplet/nuclear area B-score, replicate 1","droplet/nuclear area B-score, replicate 2","droplet/nuclear area B-score, replicate 3"
CCT2,1,1.45,0.826,0.183
Tpc1,1,0.682,1.98,
Tpc1,2,-0.42,4.37,
CG14186,1,-0.602,-0.873,-0.516
CG11726,1,0.38,0.281,
Erk7,1,-0.00991,-1.65,0.962
Erk7,2,0.138,-0.0803,-0.693
Erk7,3,-0.748,-0.129,
Marcal1,1,0.292,0.952,
enc,1,1.24,0.125,
CG31875,1,5.02,-2,
sti,1,2.79,1.97,
sti,2,2.07,1.71,
CG15465,1,-0.648,0.661,
wit,1,0.11,-0.788,
S,1,0.0135,0.305,
CG4000,1,1.06,1.39,1.58
CG4000,2,2.47,1.41,
Sem1,1,2.05,1.6,
CCT5,1,-1.76,0.00881,
CG10877,1,-0.0701,-2.16,
Surf1,1,0.359,1.51,
Surf1,2,-0.162,0.839,
Hgsnat,1,-0.925,1.76,0.0884
eIF3g2,1,1.49,-0.897,
CG3198,1,-0.323,0.385,
frm,1,0.253,-0.997,-0.012
Gnptab,1,-0.127,-0.174,
Jhbp1,1,0.00875,,
CG6912,1,0.218,0.777,
CG6184,1,0.209,-1.84,
CG1896,1,-0.387,,
CG3719,1,-0.0388,-0.0538,
ptc,1,-0.00715,0.724,
ptc,2,-2.71,-0.371,
CG18428,1,0.0509,0.116,
net,1,0.127,-0.672,
AlkB,1,0.0496,-2.23,
puc,1,0.0388,3.07,
hbn,1,-1,2.4,
hbn,2,-0.574,1.46,0.731
hbn,3,-0.964,-1,
hbn,4,-1.56,-0.0539,
trol,1,-0.578,0.626,
trol,2,-0.476,-0.485,
CG11714,1,-0.271,-0.562,
CG14096,1,-0.686,-0.594,-0.00477
CG10589,1,0.0413,0.00137,
CG31776,1,-0.377,-0.246,
Rtnl1,1,-0.534,-0.968,
Rtnl1,2,0.795,0.63,
Rtnl1,3,-0.493,-0.0462,
Rtnl1,4,1.19,-1.53,
CG7420,1,0.406,0.0462,
CG8093,1,-0.604,-0.184,
Ten-m,1,2.03,-0.752,
Ten-m,2,-0.117,0.422,
CG15040,1,-0.162,-0.549,
CG15040,2,-0.358,-0.679,
Tes,1,-0.0584,1.63,
Fancd2,1,-0.41,-0.0217,
Fancd2,2,0.119,,
Pa1,1,-2.36,0.197,0.592
CG8939,1,-0.532,-0.0578,-0.411
CG44837,1,0.837,0.78,
CG44837,2,-0.556,1.44,
sage,1,-0.0157,-0.556,
Nup188,1,0.00515,0.716,
bc10,1,-1.09,1.03,
CG4702,1,0.00355,1.55,
Syn2,1,-0.355,2.36,
mthl9,1,-0.684,-2.49,
Cpr76Bd,1,-1.85,-0.466,
Psn,1,0.0423,-0.593,
CG18417,1,-0.696,-0.667,
ccb,1,-1.86,-0.885,
Ir56a,1,-0.405,-0.385,
CG15529,1,-0.37,2.33,
beat-IIb,1,-0.221,-2.17,
beat-IIb,2,-0.875,0.149,
beat-IIb,3,-0.199,-1.82,
CG31638,1,0.254,-0.476,
CG31638,2,-0.0493,0.159,
CNT1,1,-0.218,-0.359,
Cdc5,1,0.807,1.54,
Cyp6a16Psi (retired record),1,2.15,-0.547,
sw,1,4.28,1.96,
CG14191,1,2.81,-0.292,
ine,1,-0.806,-0.394,
boca,1,-2.38,-0.0326,
SiaT,1,-1.22,1.49,
PIG-Q,1,-2,-0.0258,
CG30334,1,1.13,-0.529,
CR32011 + CR32010 + PlexB + 1 more,1,0.538,0.813,
RYBP,1,-1.7,-1.11,
grnd,1,-0.799,-0.87,
Acat2,1,0.24,-1.11,
CG9922,1,1.27,0.872,
CG13325,1,0.51,0.661,
ERp44,1,-0.242,0.949,0.716
CG15177,1,0.577,0.564,
CG13053,1,0.774,0.0686,
CG3598,1,0.255,-0.505,
CR31824,1,1.32,1.28,
stum,1,-0.0456,0.0144,
stum,2,-1.75,0.501,

Part of the list above, reformatted:
gene knocked down	reagent	droplet/nuclear area B-score, replicate 1	droplet/nuclear area B-score, replicate 2	droplet/nuclear area B-score, replicate 3
ine	1	-0.806	-0.394	
boca	1	-2.38	-0.0326	
SiaT	1	-1.22	1.49	
PIG-Q	1	-2	-0.0258	
CG30334	1	1.13	-0.529	
CR32011 + CR32010 + PlexB + 1 more	1	0.538	0.813	
RYBP	1	-1.7	-1.11	
grnd	1	-0.799	-0.87	
Acat2	1	0.24	-1.11	
CG9922	1	1.27	0.872	
CG13325	1	0.51	0.661	
ERp44	1	-0.242	0.949	0.716
CG15177	1	0.577	0.564	
CG13053	1	0.774	0.0686	
CG3598	1	0.255	-0.505	
CR31824	1	1.32	1.28	
stum	1	-0.0456	0.0144	
stum	2	-1.75	0.501	
